Results reported in patent publication US20230399327A1, “HIGH ACTIVITY HPK1 KINASE INHIBITOR” (ADLAI NORTYE BIOPHARMA CO., LTD., priority 2020, published 2023).
The structures given here were assigned with low confidence; some may be wrong.

Tests used:
mouse spleen cells = assay: Spleen IL-2 ELISA assay (IL-2 secretion after Concanavalin A); conditions: highest signal vs 0.1% DMSO, at compound concentration 10 μM, ConA, 24 h
Experimental: Test Example 3: Detection of Compound's Activating Ability to Secrete Cytokine Interleukin-2 (IL-2) from Mouse Spleen Cells (Method 3)
The specific operation is as follows: the compound powder was dissolved in DMSO to 10 mM, 2 μl of the compound was added to 998 μl of RPMI 1640 medium (contained 10% FBS in this test), and the highest concentration point was obtained after vortexing. The compound solution was gradually diluted 3 times with 0.2% DMSO medium, with a total of 8 concentration points. That treated with RPMI 1640 medium solution containing 0.1% DMSO was used as a control. Add 10^5 mouse spleen cells to each well of Corning 96-well cell culture plate (product number: 3599), then add an equal volume of compound dilution, add RPMI 1640 medium containing 0.2% DMSO to the control group, and place the cells at 37° C. to incubate for 1 h in a cell culture incubator (Thermo Fisher Scientific, model: 3111). Then add Concanavalin A at a final concentration of 0.4 μg/ml and place in a cell culture incubator at 37° C. for 24 hours. Mouse IL-2 DuoSet ELISA KIT was used to detect the IL-2 content in the cell supernatant, and the Mouse […] DuoSet ELISA detection was carried out according to the operating instructions of the kit. Data are described as the highest fold ratio of the stimulated signal of the compound to the signal of 0.1% DMSO.

DC2.4 cells = assay: DC2.4 IL-6 ELISA assay (IL-6 secretion after LPS); conditions: highest signal vs 0.1% DMSO, at compound concentration 3.33 μM, 24 h
Experimental: Test Example 4: Detection of Compound's Activating Ability to Stimulate DC2.4 Cells to Secrete Cytokine Interleukin-6 (IL-6) ([…])
The specific operation is as follows: the compound powder was dissolved in DMSO to 10 mM, 2 μl of the compound was added to 998 μl of RPMI 1640 medium (contained 10% FBS in this test), and the highest concentration point was obtained after vortexing. The compound solution was gradually diluted 3 times with 0.2% DMSO medium, with a total of 8 concentration points. That treated with RPMI 1640 medium solution containing 0.1% DMSO was used as a control. Add 10^5 DC2.4 cells to each well of Corning 96-well cell culture plate (product number: 3599), then add an equal volume of compound dilution, add RPMI 1640 medium containing 0.2% DMSO to the control group, and place the cells at 37° C. to incubate for 1 h in an incubator (Thermo Fisher Scientific, model: 3111). Subsequently, LPS was added at a final concentration of 3.2 ng/ml, and placed in a cell culture incubator at 37° C. for 24 hours. Mouse IL-6 DuoSet ELISA KIT was used to detect the IL-6 content in the cell supernatant, and the Mouse […] DuoSet ELISA detection was carried out according to the operating instructions of the kit. Data are described as the highest fold ratio of the stimulated signal of the compound to the signal of 0.1% DMSO.

PBMC = PBMC IL-2 ELISA assay (IL-2 secretion after anti-CD3/anti-CD28); conditions: highest signal vs 0.1% DMSO, at compound concentration 3.3 μM, anti-CD3/CD28, 24 h
Experimental: Test Example 5: Detection of Compound's Activating Ability to Secrete Cytokine Interleukin-2 (IL-2) from PBMC (Method 5)
The specific operation is as follows: the compound powder was dissolved in DMSO to 10 mM, 2 μl of the compound was added to 998 μl of RPMI 1640 medium (contained 10% FBS in this test), and the highest concentration point was obtained after vortexing. The compound solution was gradually diluted 3 times with 0.2% DMSO medium, with a total of 8 concentration points. That treated with RPMI 1640 medium solution containing 0.1% DMSO was used as a control. 1×10˜ 5 PBMC cells were added to each well of Corning 96-well cell culture plate (item number: 3599), and then the same volume of compound diluent was added to the control group. RPMI 1640 medium containing 0.2% DMSO was added to the control group and incubated in a 37° C. cell incubator (Thermo Fisher Scientific, model: 3111) for 1 hour. Then add Anti-human CD3 Antibody and 1 μg/ml Anti-human CD28 Antibody at a final concentration of 0.1 μg/ml, and place in a 37° C. cell culture incubator to incubate for 24 hours. The Human IL-2 DuoSet ELISA KIT was used to detect the IL-2 content in the cell supernatant, and the Human IL-2 DuoSet ELISA detection was performed according to the operating instructions of the kit. […]

CCOc1nc2c(cc1Nc1ncc3ccnc(N[C@@H]4CC[C@@H](O)C4)c3n1)CN(C)CC2 (relative stereo)
% IL-2 increased (relative to DMSO control) (mouse spleen cells): 200%
% IL-6 increased (relative to DMSO control) (DC2.4 cells): 381.00%
% IL-2 increased (relative to DMSO control) (PBMC): 217%
